Measurements taken from PubChem BioAssay AID504834 (National Center for Advancing Translational Sciences (NCATS), 2011).
The campaign covered roughly 320,000 compounds. About 22,000 (6.9%) were called active. The inconclusive results got no clear call from the source; some entries with a clear call stand among them for comparison. The call rests on the fitted dose curve; in most records, active means well fitted inhibition curve with a large enough effect; inconclusive means small, poorly fitted or top-dose-only effect, or another doubt; inactive means no such curve, though single readings can be large or run the other way. Where the call is inconclusive, the potency comes from a doubtful curve fit.

Assay: Primary qHTS for delayed death inhibitors of the malarial parasite plastid, 96 hour incubation
Conditions: P. falciparum luciferase reporter growth; series mostly up to 28.7 µM
Method in brief: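 P. falciparum expressing integrated firefly luciferase, in erythrocytes at 2% hematocrit, 0.05% parasitemia, incubated with compounds 96 h at 37 C, 5% CO2. Growth inhibition read as loss of luminescence; two-generation exposure targets delayed-death apicoplast inhibitors.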
Potency means the concentration at half of the fitted maximal effect.

Row | SMILES | Potency
1 | COC(=O)C1=C(C)N(Cc2ccccc2)C(=NCCN2CCOCC2)N[C@H]1CCc1ccccc1 | inactive
2 | CCOC(=O)C1CCN(C(=O)c2cc(S(=O)(=O)N3CCCCCC3)ccc2OC)CC1 | active: 4.15 µM
3 | c1csc(Cc2nn3c(-c4n[nH]c5c4CCC5)nnc3s2)c1 | inconclusive: 18.5 µM [inhibitor, single point]
4 | CC(C)C(Nc1ncnc2c1oc1ccccc12)C(=O)O (centres undefined) | active: 4.65 µM
5 | O=C(CCCN1C(=O)/C(=C/c2cccs2)SC1=S)Nc1ccccc1O | inactive
6 | CCN1CCN(Cc2ccc(NC(=O)c3ccc(C)c(NC(=O)C[C@@H]4NC(=O)[C@H](Cc5ccccc5)NC4=O)c3)cc2C(F)(F)F)CC1 | inconclusive: 10.4 µM [inhibitor, single point]
7 | CC(=O)c1c(C)[nH]c(C(=O)N2CCN(c3cc(Cl)ccc3C)CC2)c1C | inconclusive: 10.4 µM [inhibitor, single point]
8 | Cn1c(=O)cc(SCC(=O)N2CCN(c3ccccn3)CC2)c2ccccc21 | inconclusive: 0.0147 µM [inhibitor, full curve, poor fit]
9 | COc1ccc(/C(O)=C2/C(=O)C(=O)N(CCCN3CCOCC3)C2c2ccc(N(C)C)cc2)cc1 (centres undefined) | inconclusive: 14.7 µM [inhibitor, single point]
10 | CC(C)c1nnc(NC(=O)c2ccc(S(=O)(=O)N3CCOCC3)cc2)s1 | inconclusive: 18.5 µM [inhibitor, single point]
11 | Cc1ccc2c(NC(=O)c3ccco3)cccc2n1 | inactive
12 | COc1ccccc1S(=O)(=O)Nc1cc(C)nn1-c1ccc(C)cc1 | inconclusive: 2.94 µM [inhibitor, full curve, poor fit]
13 | Cc1cccc(NS(=O)(=O)c2cc3c(cc2C)n(C)c(=O)c(=O)n3C)c1 | active: 13.1 µM
14 | COc1ccc(CNC(=O)c2ccc(Cl)c(S(=O)(=O)N3CCOCC3)c2)cc1OC | inconclusive: 13.1 µM [inhibitor, partial curve, poor fit]
15 | N#Cc1ccccc1OCC(=O)N1N=C(c2cccs2)CC1c1ccco1 (centres undefined) | inconclusive: 10.4 µM [inhibitor, single point]
16 | CCCCn1c(SCC(=O)OCC)nc2c(sc(=S)n2-c2ccccc2OC)c1=O | inactive
17 | CN1CCCN(S(=O)(=O)c2cccc(Cl)c2Cl)CC1 | inactive
18 | COc1ccc2c(COC(=O)CC3Sc4ccccc4NC3=O)cc(=O)oc2c1 (centres undefined) | inconclusive: 18.5 µM [inhibitor, single point]
19 | COc1ccc(NC(=O)CN(C)C(=O)c2cc(-c3ccc(C)o3)nc3ccccc23)cc1 | inconclusive: 18.5 µM [inhibitor, single point]
20 | NS(=O)(=O)c1ccc(NC(=O)c2ccc(-c3ccccc3)cc2)cc1 | inconclusive: 14.7 µM [inhibitor, partial curve, poor fit]
21 | COc1ccc(-n2ncc3c2CC(C)(C)CC3NC(=O)CN2CCOC2=O)cc1 (centres undefined) | inconclusive: 18.5 µM [inhibitor, single point]
22 | CC(=O)N1c2ccccc2C(=O)OC1c1cccnc1 (centres undefined) | inactive

Another view of 4 compounds above:
Row	SMILES	Potency
9	COc1ccc(/C(O)=C2/C(=O)C(=O)N(CCCN3CCOCC3)C2c2ccc(N(C)C)cc2)cc1 (centres undefined)	inconclusive: 14.7 µM [inhibitor, single point]
10	CC(C)c1nnc(NC(=O)c2ccc(S(=O)(=O)N3CCOCC3)cc2)s1	inconclusive: 18.5 µM [inhibitor, single point]
11	Cc1ccc2c(NC(=O)c3ccco3)cccc2n1	inactive
12	COc1ccccc1S(=O)(=O)Nc1cc(C)nn1-c1ccc(C)cc1	inconclusive: 2.94 µM [inhibitor, full curve, poor fit]

The list goes on:

Row | SMILES | Potency
23 | CNc1nc(Sc2ccc(C)cc2)cc(C(F)(F)F)n1 | inconclusive: 18.5 µM [inhibitor, single point]
24 | O=C(NCC(=O)N(c1cccnc1)C(C(=O)NC1CCCC1)c1ccco1)c1cccs1 (centres undefined) | inconclusive: 4.15 µM [inhibitor, full curve, poor fit]
25 | CC1=C2C(=O)C3C(CC=C4CC(O)CCC43C)C2CCC12OC1CC(C)CNC1C2C (centres undefined) | inconclusive: 18.5 µM [inhibitor, single point]
26 | CN(C)CCCNc1oc(-c2ccccc2Cl)nc1S(=O)(=O)c1ccc(F)cc1 | inactive
27 | CCn1c(NCc2cc(Cl)ccc2O)nc2ccccc21 | active: 5.22 µM
28 | CCc1ccccc1-n1c(SCC(=O)N2CCCC2)nnc1-c1ccccn1 | inconclusive: 10.4 µM [inhibitor, partial curve]
29 | CCCCOc1ccc(N2C(N)=NC(N)=NC23CCCCC3)cc1 | inconclusive: 2.62 µM [inhibitor, partial curve, poor fit]
30 | CC(=O)Nc1ccc(CN2CCN(CC=C(C)C)C(CCO)C2)cc1 (centres undefined) | inconclusive: 18.5 µM [inhibitor, single point]
31 | COc1cc2c(cc1OC)-c1cc(OCCN3CCOCC3)nc(=O)n1CC2 | inconclusive: 0.165 µM [inhibitor, full curve, poor fit]
32 | CCOC(=O)C1=C(N)Oc2cc(O)ccc2C1c1ccc(F)cc1F (centres undefined) | inconclusive: 18.5 µM [inhibitor, single point]
33 | COc1ccc(S(=O)(=O)N2CCCOC2CNC(=O)C(=O)NCCc2ccco2)cc1OC (centres undefined) | inconclusive: 20.8 µM [inhibitor, single point]
34 | Cc1cccc(C)c1NC(=O)CNC(=O)c1ccc2nc[nH]c2c1 | inactive
35 | O=C(OCCCCN1C(=O)c2ccccc2C1=O)c1n[nH]c2ccccc12 | active: 13.1 µM
36 | CC(C)CCNC(=O)c1cc(C(=O)c2cc(F)ccc2O)cn(CCC(C)C)c1=O | inconclusive: 0.465 µM [inhibitor, full curve, poor fit]
37 | COC(=O)c1cn(NC(=O)C2CCC(C(C)(C)C)CC2)c(=O)c2ccccc12 (centres undefined) | active: 4.15 µM
38 | O=c1cc(C(F)(F)F)[nH]c2ccc(C(F)(F)F)cc12 | inconclusive: 1.65 µM [inhibitor, partial curve, poor fit]
39 | Cc1ccc(-n2c(N)c(C(=O)NCc3cccnc3)sc2=S)cc1 | inactive
40 | CCCCS(=O)(=O)NC1=NCN(Cc2ccco2)CN1 | inactive
41 | CCOC(=O)C1C(=O)C=C(/C=C/c2ccc(N(C)C)cc2)CC1c1ccccc1 (centres undefined) | inconclusive: 7.38 µM [inhibitor, partial curve, poor fit]
42 | Cc1ccc(CN2CCN(/N=C/c3ccc(C)s3)CC2)cc1 | inconclusive: 3.7 µM [inhibitor, full curve, poor fit]
43 | COc1ccc(C(=O)C[n+]2cccc(C)c2C)cc1[N+](=O)[O-] | inactive
44 | CCC(CO)Oc1cc(NCc2ccccc2F)c2ncn(C(C)C)c2c1 (centres undefined) | active: 4.65 µM
